The target in the experiment is connexin43 (Gja1) (mouse) (UniProt P23242). As to the kind of experiment: co-IP.

Protein sequences, listed by entry. Tags and fused reporters are not part of them.
UniProt P23242: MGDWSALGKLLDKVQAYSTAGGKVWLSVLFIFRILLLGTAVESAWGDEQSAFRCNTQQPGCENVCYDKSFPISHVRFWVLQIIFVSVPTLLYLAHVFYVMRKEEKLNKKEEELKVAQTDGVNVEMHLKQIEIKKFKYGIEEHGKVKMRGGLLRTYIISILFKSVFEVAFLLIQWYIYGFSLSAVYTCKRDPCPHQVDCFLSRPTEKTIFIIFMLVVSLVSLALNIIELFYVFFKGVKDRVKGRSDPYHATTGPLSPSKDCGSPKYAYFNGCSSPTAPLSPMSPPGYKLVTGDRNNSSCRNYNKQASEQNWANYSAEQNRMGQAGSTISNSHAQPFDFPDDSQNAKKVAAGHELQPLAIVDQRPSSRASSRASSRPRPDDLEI

Results are given in words; binding and its absence hold for the method and conditions named. Binding seen in cells or lysates may run through a third protein.

B1: BT-IgSF (brain- and testis-specific Ig superfamily protein) (protein, UniProt P0C673 23-428)
chain: LEVSESPGSVQVARGQTAVLPCAFSTSAALLNLNVIWMVIPLSNANQPEQVILYQGGQMFDGALRFHGRVGFTGTMPATNVSIFINNTQLSDTGTYQCLVNNLPDRGGRNIGVTGLTVLVPPSAPQCQIQGSQDLGSDVILLCSSEEGIPRPTYLWEKLDNTLKLPPTATQDQVQGTVTIRNISALSSGLYQCVASNAIGTSTCLLDLQVISPQPRSVGVIAGAVGTGAVLIVICLALISGAFFYWRSKNKEEEEEEIPNEIREDDLPPKCSSAKAFHTEISSSENNTLTSSNTYNSRYWNNNPKPHRNTESFNHFSDLRQSFSGNAVIPSIYANGNHLVLGPHKTLVVTANRGSSPQVLPRNNGSVSRKPWPQHTHSYTVSQMTLERIGAVPVMVPAQSRAGSLV
Take B1: the binding entry was “no binding”.

The values above are taken from doi:10.1101/2022.06.17.496568.
